Reference: paper PMC10858260
For at least one entry, the source does not settle the construct or the ends of the probe. No signal at the amounts used counts as a negative. For some assays here: At least one verdict was read from the data and is not stated in words by the source.

Columns and labels:
Assay in all cases: BLI
[1] = test system: ApsR-P (phosphorylated with acetyl-phosphate) (Lacticaseibacillus paracasei BL23); conditions: acetyl-phosphate, Mg2+; BLI (BLITz, streptavidin sensors, DNA immobilized): 50 mM Tris-HCl pH 7.4, 150 mM NaCl, 0.1% Tween 20; recombinant protein; protein details: N-terminal His6 (pNIC28-Bsa4); label: biotin on reverse primer
[2] = test system: PsdR-P (phosphorylated with ammonium phosphoramidate) (Lacticaseibacillus paracasei BL23); conditions: ammonium phosphoramidate, Mg2+; BLI (BLITz, streptavidin sensors, DNA immobilized): 50 mM Tris-HCl pH 7.4, 150 mM NaCl, 0.1% Tween 20; recombinant protein; protein details: N-terminal His6 (pNIC28-Bsa4); label: biotin on reverse primer
[3] = test system: ApsR treated with ammonium phosphoramidate (phosphorylated) (Lacticaseibacillus paracasei BL23); conditions: ammonium phosphoramidate, Mg2+; BLI (BLITz, streptavidin sensors, DNA immobilized): 50 mM Tris-HCl pH 7.4, 150 mM NaCl, 0.1% Tween 20; recombinant protein; protein details: N-terminal His6 (pNIC28-Bsa4); label: biotin on reverse primer
[4] = test system: ApsR unphosphorylated (Lacticaseibacillus paracasei BL23); conditions: unphosphorylated; BLI (BLITz, streptavidin sensors, DNA immobilized): 50 mM Tris-HCl pH 7.4, 150 mM NaCl, 0.1% Tween 20; recombinant protein; protein details: N-terminal His6 (pNIC28-Bsa4); label: biotin on reverse primer
[5] = test system: PsdR unphosphorylated (Lacticaseibacillus paracasei BL23); conditions: unphosphorylated; BLI (BLITz, streptavidin sensors, DNA immobilized): 50 mM Tris-HCl pH 7.4, 150 mM NaCl, 0.1% Tween 20; recombinant protein; protein details: N-terminal His6 (pNIC28-Bsa4); label: biotin on reverse primer

Sequence	binding result [1]	binding result [2]	binding result [3]	binding result [4]	binding result [5]
AAACTGCCGATGCTGAGATGATGATGGAAAACTCACTGTTTGGTTTACCTGAAGGGGCAGCCATGGTTACCGATGGCACAACCAATACTTTCCAGGCAGC (double strand) [Flta]	no binding	no binding	–	–	–
TCACGCTTCTCATATTACGAAACTGTTAGCTCATTGTTACGCAATTCGTTGGCGTCATTTTTTCTGAAAACCTATAATGAATGTGTAAATAAAAACGTGG (double strand) [Pdlt]	–	–	no binding	no binding	no binding
CAATCATCTCGCAAACTTACATCACCTTACAAAAAGGTCAGAAAGGGTGCGAGGGGCTTGTAGATTTCCTATAATGAATAGGAATATAGACACGGAGGAC (double strand) [PmprF]	–	–	no binding	no binding	no binding
GTAAGCTACCTTACCAGCTTGTAAGCAACTACGAATCACTGTAAGTAGGCATGGGGCATCATCCCCGCTAAGCTAATAAATGAAAGGGGACGATCACATG (double strand) [PpsdA]	–	–	no binding	no binding	no binding
GGTAAAGAAAGACTAAAGCAGCTTACAAAGCCGTAAGTTACAAACAACCATCCGTTAGGCCATTATCAGGAAAAAGGCAGCCTAACCCGCTATCATAAAG (double strand) [PderA]	–	–	no binding	no binding	no binding
